{"source": "PubChem BioAssay AID652243 – Drosophila RNAi Screening Center, 2013", "assay": "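Fly genes required for human androgen receptor driven transcription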 (primary screen)", "cell system": "Drosophila S2R+ cells", "knock-down reagent": "long dsRNA against Drosophila genes", "time to read-out": "72 h (48 h, then 24 h hormone)", "challenge": "synthetic androgen R1881 at 10 nM for 24 h", "read-out": "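Per-well raw luminescence of the androgen-driven firefly reporter and of the Renilla control, two replicates each, without normalisation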", "scale": "firefly reporter light: higher = more light from androgen-responsive reporter; Renilla control light: higher = more constitutive control signal (cell number, transfection)", "active means": "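Hit when the log firefly-to-Renilla ratio dropped or increased by a fixed fold versus the mean of GFP or LacZ controls across duplicate plates; lowering cut given as 1.5 and as 3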", "meaning of the calls": "active = hit: reporter lowered or raised; inactive = no hit", "note": "In all, the deposit lists about 24,000 reagents; this is an unselected part of those with a known target gene and a result. Over the whole deposit, 246 (1%) were called active. 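Plates not normalised; calls are printed but the firefly/Renilla ratio behind them is not deposited; fold cut for lowering reported inconsistently.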 The raw values are shown without normalisation. Names joined by + are all predicted targets of the reagent. Not given: the amount of reagent."}
{"target gene": "CG43088 (GeneID 12797977)", "amplicon": "DRSC21407", "firefly reporter light, replicate 1": 5.26e5, "firefly reporter light, replicate 2": 6.55e5, "Renilla control light, replicate 1": 2.36e6, "Renilla control light, replicate 2": 2.13e6, "activity call": "inactive"}
{"target gene": "VhaAC45 (GeneID 35944)", "amplicon": "DRSC07058", "firefly reporter light, replicate 1": 1.65e6, "firefly reporter light, replicate 2": 1.27e6, "Renilla control light, replicate 1": 2.48e6, "Renilla control light, replicate 2": 1.23e6, "activity call": "inactive"}
{"target gene": "TM9SF4 (GeneID 34778)", "amplicon": "DRSC01888", "firefly reporter light, replicate 1": 1.22e6, "firefly reporter light, replicate 2": 1.28e6, "Renilla control light, replicate 1": 2.03e6, "Renilla control light, replicate 2": 1.78e6, "activity call": "inactive"}
{"target gene": "Ubr1 (GeneID 32687)", "amplicon": "DRSC20148", "firefly reporter light, replicate 1": 85146, "firefly reporter light, replicate 2": 83597, "Renilla control light, replicate 1": 8.29e5, "Renilla control light, replicate 2": 6.55e5, "activity call": "inactive"}
{"target gene": "Pex5 (GeneID 31141)", "amplicon": "DRSC18552", "firefly reporter light, replicate 1": 3.36e5, "firefly reporter light, replicate 2": 3.91e5, "Renilla control light, replicate 1": 3.96e6, "Renilla control light, replicate 2": 3.42e6, "activity call": "inactive"}
{"target gene": "Pex5 (GeneID 31141)", "amplicon": "DRSC26136", "firefly reporter light, replicate 1": 3.19e5, "firefly reporter light, replicate 2": 2.90e5, "Renilla control light, replicate 1": 7.37e5, "Renilla control light, replicate 2": 7.23e5, "activity call": "inactive"}
{"target gene": "His3:CG33818 + His3:CG33857 + His3:CG33806 + 21 more", "amplicon": "DRSC27099", "firefly reporter light, replicate 1": 3.60e5, "firefly reporter light, replicate 2": 3.63e5, "Renilla control light, replicate 1": 37642, "Renilla control light, replicate 2": 28430, "activity call": "inactive"}
{"target gene": "CG8565 (GeneID 32538)", "amplicon": "DRSC20112", "firefly reporter light, replicate 1": 4.96e5, "firefly reporter light, replicate 2": 4.19e5, "Renilla control light, replicate 1": 3.33e6, "Renilla control light, replicate 2": 2.72e6, "activity call": "inactive"}
{"target gene": "CG8565 (GeneID 32538)", "amplicon": "DRSC36818", "activity call": "inactive"}
{"target gene": "CG8565 (GeneID 32538)", "amplicon": "DRSC36819", "activity call": "inactive"}
{"target gene": "Or30a (GeneID 34236)", "amplicon": "DRSC03385", "firefly reporter light, replicate 1": 3.09e5, "firefly reporter light, replicate 2": 3.11e5, "Renilla control light, replicate 1": 1.61e6, "Renilla control light, replicate 2": 2.07e6, "activity call": "inactive"}
{"target gene": "MICU3 (GeneID 42357)", "amplicon": "DRSC13381", "firefly reporter light, replicate 1": 1.73e5, "firefly reporter light, replicate 2": 39940, "Renilla control light, replicate 1": 2.42e5, "Renilla control light, replicate 2": 88613, "activity call": "inactive"}
{"target gene": "MICU3 (GeneID 42357)", "amplicon": "DRSC15613", "firefly reporter light, replicate 1": 1.20e5, "firefly reporter light, replicate 2": 1.21e5, "Renilla control light, replicate 1": 1.10e6, "Renilla control light, replicate 2": 1.38e6, "activity call": "inactive"}
{"target gene": "tst + CG10375", "amplicon": "DRSC14237", "firefly reporter light, replicate 1": 98620, "firefly reporter light, replicate 2": 34490, "Renilla control light, replicate 1": 5.92e5, "Renilla control light, replicate 2": 3.75e5, "activity call": "inactive"}
{"target gene": "CG14196 (GeneID 32915)", "amplicon": "DRSC19551", "firefly reporter light, replicate 1": 1.67e5, "firefly reporter light, replicate 2": 99682, "Renilla control light, replicate 1": 6.36e5, "Renilla control light, replicate 2": 4.29e5, "activity call": "inactive"}
{"target gene": "CG14196 (GeneID 32915)", "amplicon": "DRSC26030", "firefly reporter light, replicate 1": 2.82e5, "firefly reporter light, replicate 2": 2.39e5, "Renilla control light, replicate 1": 7.84e5, "Renilla control light, replicate 2": 7.18e5, "activity call": "inactive"}
{"target gene": "Spt20 (GeneID 39522)", "amplicon": "DRSC22993", "firefly reporter light, replicate 1": 5.70e5, "firefly reporter light, replicate 2": 7.95e5, "Renilla control light, replicate 1": 8.29e5, "Renilla control light, replicate 2": 1.00e6, "activity call": "inactive"}
{"target gene": "Spt20 (GeneID 39522)", "amplicon": "DRSC25791", "firefly reporter light, replicate 1": 2.55e5, "firefly reporter light, replicate 2": 3.87e5, "Renilla control light, replicate 1": 6.88e5, "Renilla control light, replicate 2": 5.20e5, "activity call": "inactive"}
{"target gene": "TTLL15 (GeneID 41300)", "amplicon": "DRSC15543", "firefly reporter light, replicate 1": 1.23e5, "firefly reporter light, replicate 2": 1.79e5, "Renilla control light, replicate 1": 2.03e6, "Renilla control light, replicate 2": 2.31e6, "activity call": "inactive"}
{"target gene": "cv-2 (GeneID 45280)", "amplicon": "DRSC03861", "firefly reporter light, replicate 1": 2.49e5, "firefly reporter light, replicate 2": 2.72e5, "Renilla control light, replicate 1": 3.68e5, "Renilla control light, replicate 2": 4.66e5, "activity call": "inactive"}
{"target gene": "cv-2 (GeneID 45280)", "amplicon": "DRSC04261", "firefly reporter light, replicate 1": 1.18e5, "firefly reporter light, replicate 2": 1.21e5, "Renilla control light, replicate 1": 1.61e6, "Renilla control light, replicate 2": 9.74e5, "activity call": "inactive"}

Laid out differently: 2 of the entries above.
target gene,amplicon,"firefly reporter light, replicate 1","firefly reporter light, replicate 2","Renilla control light, replicate 1","Renilla control light, replicate 2",activity call
CG43088 (GeneID 12797977),DRSC21407,5.26e5,6.55e5,2.36e6,2.13e6,inactive
VhaAC45 (GeneID 35944),DRSC07058,1.65e6,1.27e6,2.48e6,1.23e6,inactive
